Test results as given in PMC8307194.
No constants are given. Whether binding was seen depends on the method and setting. In cells and extracts the contact can be indirect. Some binding calls cover weakened binding; strength is not graded here. Tags and fused reporters may be left off the sequences shown.

Chains of the proteins cited; added tags and fusions are not shown.
UniProt Q13616: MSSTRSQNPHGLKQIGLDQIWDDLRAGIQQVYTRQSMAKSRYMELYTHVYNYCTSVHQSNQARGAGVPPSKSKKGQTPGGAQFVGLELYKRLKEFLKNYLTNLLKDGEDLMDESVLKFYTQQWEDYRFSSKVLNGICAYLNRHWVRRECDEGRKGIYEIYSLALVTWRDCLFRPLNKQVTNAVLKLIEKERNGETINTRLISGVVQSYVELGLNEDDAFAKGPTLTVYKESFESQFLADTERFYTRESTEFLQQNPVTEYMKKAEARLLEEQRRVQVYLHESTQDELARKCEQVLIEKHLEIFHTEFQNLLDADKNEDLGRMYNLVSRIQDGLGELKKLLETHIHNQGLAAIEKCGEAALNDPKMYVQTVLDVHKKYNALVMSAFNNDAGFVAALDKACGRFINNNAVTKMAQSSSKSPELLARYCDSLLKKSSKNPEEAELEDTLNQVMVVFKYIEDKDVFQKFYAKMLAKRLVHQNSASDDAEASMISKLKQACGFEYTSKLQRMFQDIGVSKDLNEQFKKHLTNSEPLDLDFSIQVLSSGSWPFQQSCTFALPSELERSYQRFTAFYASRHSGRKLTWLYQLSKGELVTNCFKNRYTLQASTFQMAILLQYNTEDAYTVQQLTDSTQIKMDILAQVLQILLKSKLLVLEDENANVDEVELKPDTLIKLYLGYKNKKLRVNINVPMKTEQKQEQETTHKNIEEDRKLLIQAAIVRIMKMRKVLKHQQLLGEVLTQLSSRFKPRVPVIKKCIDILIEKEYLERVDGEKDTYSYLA

Target: GST-tagged CUL1 WT (human) (UniProt Q13616)
Test: pull-down; bead-bound GST fusion purified from bacteria (BL21) incubated with HEK293T lysates expressing the Flag-tagged partner for 5 h; washed four times with TBSN buffer (20 mM Tris-Cl pH 8.0, 150 mM NaCl, 0.5% NP-40); anti-Flag immunoblot; only the target purified

binding: binds
B1: Flag-tagged Dvl2 WT (mouse dishevelled 2) (protein, UniProt Q60838 1-736)
chain: MAGSSAGGGGVGETKVIYHLDEEETPYLVKIPVPAERITLGDFKSVLQRPAGAKYFFKSMDQDFGVVKEEISDDNARLPCFNGRVVSWLVSSDTPQPEVAPPAHESRTELVPPPPPLPPLPPERTSGIGDSRPPSFHPNVSSSHENLEPETETESVVSLRRDRPRRRDSSEHGAGGHRPGGPSRLERHLAGYESSSTLMTSELESTSLGDSDEDDTMSRFSSSTEQSSASRLLKRHRRRRKQRPPRMERTSSFSSVTDSTMSLNIITVTLNMEKYNFLGISIVGQSNERGDGGIYIGSIMKGGAVAADGRIEPGDMLLQVNDMNFENMSNDDAVRVLRDIVHKPGPIVLTVAKCWDPSPQAYFTLPRNEPIQPIDPAAWVSHSAALTGAFPAYPGSSSMSTITSGSSLPDGCEGRGLSVHMDMASVTKAMAAPESGLEVRDRMWLKITIPNAFLGSDVVDWLYHHVEGFPERREARKYASGLLKAGLIRHTVNKITFSEQCYYVFGDLSGGCESYLVNLSLNDNDGSSGASDQDTLAPLPGATPWPLLPTFSYQYPAPHPYSPQPPPYHELSSYTYGGGSASSQHSEGSRSSGSTRSDGGAGRTGRPEERAPESKSGSGSESELSSRGGSLRRGGEPGGTGDGGPPPSRGSTGAPPNLRALPGLHPYGAPSGMALPYNPMMVVMMPPPPPPVSTAVQPPGAPPVRDLGSVPPELTASRQSFHMAMGNPSEFFVDVM
